{"sequences": {"note": "The chains behind the UniProt entries cited, without tags or fusion partners. Where a name states a change or a piece, a line headed by the entry shows the natural chain unless it says otherwise.", "UniProt P53618": "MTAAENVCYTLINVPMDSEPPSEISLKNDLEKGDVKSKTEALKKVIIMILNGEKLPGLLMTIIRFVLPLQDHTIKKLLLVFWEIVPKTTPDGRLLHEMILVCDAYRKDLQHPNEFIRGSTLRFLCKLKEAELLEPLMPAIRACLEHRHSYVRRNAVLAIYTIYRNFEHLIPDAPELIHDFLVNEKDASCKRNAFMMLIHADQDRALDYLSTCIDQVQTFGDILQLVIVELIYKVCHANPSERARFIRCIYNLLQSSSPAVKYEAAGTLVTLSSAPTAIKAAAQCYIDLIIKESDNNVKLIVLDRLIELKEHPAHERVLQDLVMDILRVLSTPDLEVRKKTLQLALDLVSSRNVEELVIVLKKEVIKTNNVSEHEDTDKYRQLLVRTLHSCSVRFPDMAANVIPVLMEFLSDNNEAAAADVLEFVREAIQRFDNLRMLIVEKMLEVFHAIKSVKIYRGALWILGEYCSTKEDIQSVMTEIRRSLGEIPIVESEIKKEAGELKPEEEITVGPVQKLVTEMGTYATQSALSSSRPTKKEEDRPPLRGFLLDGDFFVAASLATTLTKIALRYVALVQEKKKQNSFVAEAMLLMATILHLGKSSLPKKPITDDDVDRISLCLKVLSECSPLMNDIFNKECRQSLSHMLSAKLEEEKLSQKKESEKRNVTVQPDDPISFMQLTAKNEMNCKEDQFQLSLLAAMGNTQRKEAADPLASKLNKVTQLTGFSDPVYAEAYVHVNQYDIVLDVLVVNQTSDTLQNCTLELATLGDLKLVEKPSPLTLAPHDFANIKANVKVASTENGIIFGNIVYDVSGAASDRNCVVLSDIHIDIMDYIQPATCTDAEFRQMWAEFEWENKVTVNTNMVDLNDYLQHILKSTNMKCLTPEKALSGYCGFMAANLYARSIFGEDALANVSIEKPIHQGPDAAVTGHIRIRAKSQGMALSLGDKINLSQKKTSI", "UniProt P57737": "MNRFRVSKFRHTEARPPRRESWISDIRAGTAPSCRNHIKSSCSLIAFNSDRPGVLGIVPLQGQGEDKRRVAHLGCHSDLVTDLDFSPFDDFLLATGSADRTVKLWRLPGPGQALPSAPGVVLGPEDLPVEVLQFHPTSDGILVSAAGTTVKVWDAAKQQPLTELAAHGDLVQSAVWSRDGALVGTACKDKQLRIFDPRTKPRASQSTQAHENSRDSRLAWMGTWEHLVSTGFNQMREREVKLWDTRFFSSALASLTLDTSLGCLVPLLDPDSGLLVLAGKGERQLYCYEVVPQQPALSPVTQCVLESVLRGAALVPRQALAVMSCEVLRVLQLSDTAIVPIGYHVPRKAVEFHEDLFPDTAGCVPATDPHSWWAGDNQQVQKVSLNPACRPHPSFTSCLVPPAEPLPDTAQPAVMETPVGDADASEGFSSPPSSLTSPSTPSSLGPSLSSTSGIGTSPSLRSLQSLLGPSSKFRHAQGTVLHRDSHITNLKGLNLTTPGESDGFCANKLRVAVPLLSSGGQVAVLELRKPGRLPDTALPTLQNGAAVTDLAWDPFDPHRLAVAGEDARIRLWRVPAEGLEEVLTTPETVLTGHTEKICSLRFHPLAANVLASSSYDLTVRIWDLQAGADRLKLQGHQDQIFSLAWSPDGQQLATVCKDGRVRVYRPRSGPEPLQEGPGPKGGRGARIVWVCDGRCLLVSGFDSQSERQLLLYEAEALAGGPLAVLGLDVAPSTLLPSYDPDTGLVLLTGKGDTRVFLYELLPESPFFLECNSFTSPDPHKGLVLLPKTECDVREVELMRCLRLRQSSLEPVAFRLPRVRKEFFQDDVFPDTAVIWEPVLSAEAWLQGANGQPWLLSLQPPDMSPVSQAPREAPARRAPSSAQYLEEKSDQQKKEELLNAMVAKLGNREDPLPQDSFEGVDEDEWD", "UniProt P63092, whole entry": "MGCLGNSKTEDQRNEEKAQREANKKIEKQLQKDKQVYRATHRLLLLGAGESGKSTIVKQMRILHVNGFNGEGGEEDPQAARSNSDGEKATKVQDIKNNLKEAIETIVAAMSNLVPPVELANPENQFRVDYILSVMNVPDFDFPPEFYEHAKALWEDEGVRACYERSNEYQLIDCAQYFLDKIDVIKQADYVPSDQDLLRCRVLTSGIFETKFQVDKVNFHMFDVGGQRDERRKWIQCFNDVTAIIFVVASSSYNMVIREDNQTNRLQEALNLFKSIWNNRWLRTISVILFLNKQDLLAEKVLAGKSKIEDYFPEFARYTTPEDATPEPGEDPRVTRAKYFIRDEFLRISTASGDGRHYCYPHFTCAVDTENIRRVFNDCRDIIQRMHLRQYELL", "UniProt P57768": "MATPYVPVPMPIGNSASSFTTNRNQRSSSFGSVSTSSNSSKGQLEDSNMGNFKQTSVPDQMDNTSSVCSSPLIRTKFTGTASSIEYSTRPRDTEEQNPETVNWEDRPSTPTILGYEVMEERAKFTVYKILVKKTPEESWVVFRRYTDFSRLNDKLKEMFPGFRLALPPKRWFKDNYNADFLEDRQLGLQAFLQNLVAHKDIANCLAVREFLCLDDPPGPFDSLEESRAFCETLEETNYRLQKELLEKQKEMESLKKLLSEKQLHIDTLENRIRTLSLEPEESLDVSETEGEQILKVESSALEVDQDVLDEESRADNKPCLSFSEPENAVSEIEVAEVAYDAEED", "UniProt P61225": "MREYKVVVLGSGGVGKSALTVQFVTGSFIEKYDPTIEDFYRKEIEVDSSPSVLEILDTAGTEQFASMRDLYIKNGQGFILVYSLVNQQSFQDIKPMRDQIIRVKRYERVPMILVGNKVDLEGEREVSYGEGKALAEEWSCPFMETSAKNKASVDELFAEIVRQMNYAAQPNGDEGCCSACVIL", "UniProt P54922": "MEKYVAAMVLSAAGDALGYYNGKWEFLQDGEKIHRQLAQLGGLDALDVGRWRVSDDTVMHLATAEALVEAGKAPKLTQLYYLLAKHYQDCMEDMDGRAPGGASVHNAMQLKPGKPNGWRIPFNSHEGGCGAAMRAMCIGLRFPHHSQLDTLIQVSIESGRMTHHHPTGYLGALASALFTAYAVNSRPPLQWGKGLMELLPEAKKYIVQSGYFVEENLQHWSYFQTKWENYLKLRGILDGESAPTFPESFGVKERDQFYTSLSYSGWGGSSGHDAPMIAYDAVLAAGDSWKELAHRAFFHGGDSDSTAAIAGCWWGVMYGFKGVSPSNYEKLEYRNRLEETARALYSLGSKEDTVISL", "UniProt P52739": "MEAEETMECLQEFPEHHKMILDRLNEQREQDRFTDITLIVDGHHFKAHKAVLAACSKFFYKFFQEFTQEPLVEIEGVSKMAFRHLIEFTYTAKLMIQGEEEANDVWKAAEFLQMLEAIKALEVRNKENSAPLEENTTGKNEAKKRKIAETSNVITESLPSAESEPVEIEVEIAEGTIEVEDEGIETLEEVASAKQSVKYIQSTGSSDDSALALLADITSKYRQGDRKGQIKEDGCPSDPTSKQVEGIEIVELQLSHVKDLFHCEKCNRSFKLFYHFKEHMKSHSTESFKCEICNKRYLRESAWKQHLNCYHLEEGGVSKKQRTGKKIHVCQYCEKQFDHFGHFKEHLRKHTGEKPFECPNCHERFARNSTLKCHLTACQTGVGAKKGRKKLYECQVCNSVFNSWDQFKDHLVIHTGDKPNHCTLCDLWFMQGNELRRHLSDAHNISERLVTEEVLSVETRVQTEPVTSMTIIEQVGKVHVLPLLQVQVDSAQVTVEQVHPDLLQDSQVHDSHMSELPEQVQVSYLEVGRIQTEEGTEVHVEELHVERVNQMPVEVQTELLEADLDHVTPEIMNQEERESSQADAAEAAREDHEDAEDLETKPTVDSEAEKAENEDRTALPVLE", "UniProt P57678": "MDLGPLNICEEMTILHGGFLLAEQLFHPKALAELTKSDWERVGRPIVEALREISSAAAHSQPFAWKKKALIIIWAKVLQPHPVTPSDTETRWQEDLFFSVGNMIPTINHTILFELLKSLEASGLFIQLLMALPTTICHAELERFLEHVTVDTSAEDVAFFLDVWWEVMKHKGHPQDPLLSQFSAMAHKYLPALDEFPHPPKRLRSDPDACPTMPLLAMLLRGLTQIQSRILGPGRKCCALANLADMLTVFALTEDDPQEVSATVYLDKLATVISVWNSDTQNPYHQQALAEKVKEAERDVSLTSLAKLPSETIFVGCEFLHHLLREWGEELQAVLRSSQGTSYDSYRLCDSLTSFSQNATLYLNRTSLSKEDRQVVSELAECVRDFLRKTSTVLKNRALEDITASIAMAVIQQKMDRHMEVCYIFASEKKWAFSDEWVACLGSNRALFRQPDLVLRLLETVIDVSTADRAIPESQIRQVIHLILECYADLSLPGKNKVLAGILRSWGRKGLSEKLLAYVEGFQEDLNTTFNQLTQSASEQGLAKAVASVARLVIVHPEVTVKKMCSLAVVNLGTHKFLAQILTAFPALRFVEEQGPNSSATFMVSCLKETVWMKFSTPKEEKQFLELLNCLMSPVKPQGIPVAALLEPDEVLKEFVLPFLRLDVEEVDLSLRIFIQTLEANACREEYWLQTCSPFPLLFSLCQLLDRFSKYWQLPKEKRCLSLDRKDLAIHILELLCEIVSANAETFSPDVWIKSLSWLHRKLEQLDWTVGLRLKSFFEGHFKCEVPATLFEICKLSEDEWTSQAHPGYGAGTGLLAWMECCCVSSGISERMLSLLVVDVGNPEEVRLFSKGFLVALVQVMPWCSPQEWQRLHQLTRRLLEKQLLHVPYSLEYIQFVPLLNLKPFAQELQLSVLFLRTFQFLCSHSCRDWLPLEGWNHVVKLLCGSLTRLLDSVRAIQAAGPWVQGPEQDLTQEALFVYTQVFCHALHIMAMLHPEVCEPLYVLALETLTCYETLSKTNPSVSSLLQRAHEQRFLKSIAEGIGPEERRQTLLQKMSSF", "UniProt P62136, whole entry": "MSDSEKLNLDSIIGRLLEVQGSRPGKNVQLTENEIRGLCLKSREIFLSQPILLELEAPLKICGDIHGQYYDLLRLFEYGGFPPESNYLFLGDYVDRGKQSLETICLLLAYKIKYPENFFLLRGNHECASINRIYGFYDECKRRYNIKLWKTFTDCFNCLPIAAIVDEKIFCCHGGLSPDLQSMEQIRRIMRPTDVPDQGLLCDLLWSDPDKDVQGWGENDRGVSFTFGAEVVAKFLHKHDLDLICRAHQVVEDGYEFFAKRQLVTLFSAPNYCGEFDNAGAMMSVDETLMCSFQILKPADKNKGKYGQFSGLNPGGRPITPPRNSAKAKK", "UniProt P61326, whole entry": "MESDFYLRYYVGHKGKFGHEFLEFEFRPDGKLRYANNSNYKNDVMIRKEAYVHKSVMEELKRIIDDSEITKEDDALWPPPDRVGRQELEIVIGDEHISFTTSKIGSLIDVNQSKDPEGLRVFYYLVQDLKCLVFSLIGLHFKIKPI", "UniProt P53677": "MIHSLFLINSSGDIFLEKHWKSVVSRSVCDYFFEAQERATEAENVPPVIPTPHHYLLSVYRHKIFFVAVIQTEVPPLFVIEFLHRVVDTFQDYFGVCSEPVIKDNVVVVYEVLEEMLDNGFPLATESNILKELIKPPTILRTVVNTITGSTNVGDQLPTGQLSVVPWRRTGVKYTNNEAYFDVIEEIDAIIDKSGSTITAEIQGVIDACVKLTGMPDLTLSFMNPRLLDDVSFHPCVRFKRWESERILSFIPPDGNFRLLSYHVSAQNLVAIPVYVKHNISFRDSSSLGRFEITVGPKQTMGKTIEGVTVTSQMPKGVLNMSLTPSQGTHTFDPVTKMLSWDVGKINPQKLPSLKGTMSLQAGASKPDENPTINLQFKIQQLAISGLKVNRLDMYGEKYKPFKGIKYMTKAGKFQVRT", "UniProt P52756, whole entry": "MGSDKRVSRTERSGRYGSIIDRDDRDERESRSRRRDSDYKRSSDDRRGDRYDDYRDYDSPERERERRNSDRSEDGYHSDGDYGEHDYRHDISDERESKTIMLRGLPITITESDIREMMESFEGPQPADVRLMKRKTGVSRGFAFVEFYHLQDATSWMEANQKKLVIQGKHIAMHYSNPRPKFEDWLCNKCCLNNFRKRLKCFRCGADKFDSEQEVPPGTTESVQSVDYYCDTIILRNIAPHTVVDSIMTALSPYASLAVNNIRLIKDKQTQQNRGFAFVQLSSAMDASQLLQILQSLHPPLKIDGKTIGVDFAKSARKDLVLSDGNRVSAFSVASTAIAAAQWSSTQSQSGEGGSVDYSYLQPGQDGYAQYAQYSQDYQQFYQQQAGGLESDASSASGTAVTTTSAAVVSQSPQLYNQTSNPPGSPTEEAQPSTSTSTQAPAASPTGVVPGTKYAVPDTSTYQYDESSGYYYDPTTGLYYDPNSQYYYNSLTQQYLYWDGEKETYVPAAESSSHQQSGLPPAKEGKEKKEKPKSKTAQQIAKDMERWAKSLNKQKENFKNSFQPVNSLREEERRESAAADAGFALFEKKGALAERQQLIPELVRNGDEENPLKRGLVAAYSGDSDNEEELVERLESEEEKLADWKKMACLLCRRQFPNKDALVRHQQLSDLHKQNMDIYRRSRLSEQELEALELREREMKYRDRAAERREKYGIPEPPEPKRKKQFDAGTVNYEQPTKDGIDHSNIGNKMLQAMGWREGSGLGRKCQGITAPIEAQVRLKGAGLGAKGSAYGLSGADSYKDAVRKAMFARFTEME"}, "source": "the supplement of paper PMC12595434", "about": "“Development of retinoid nuclear receptor pathway antagonists through targeting aldehyde dehydrogenase 1A3” (iScience, 2025)", "note": "Some of the results follow. This is a noisy data set.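 Tm was set to 64 °C where no melting was found, and many curves are irregular.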", "data": [{"compound": "CCc1cnccc1C(=O)Nc1cc2c(cc1F)NC(=O)CC2", "assay": "melting temperature shift (DMSO Tm minus MBE1-treated Tm) in cellular thermal proteome profiling; higher = less thermal stabilization by MBE1 (negative = stabilized by MBE1)", "conditions": "A375; MBE1 concentration: 100 nM", "units": {"melting temperature shift": "°C"}, "values": [{"target": "COPB1 (UniProt P53618)", "melting temperature shift": -0.624}, {"target": "ACLY (UniProt P53396)", "melting temperature shift": -0.174}, {"target": "RPS29 (UniProt P62273)", "melting temperature shift": 5.63}, {"target": "CORO7 (UniProt P57737)", "melting temperature shift": -0.32}, {"target": "PEX3 (UniProt P56589)", "melting temperature shift": 0.314}, {"target": "UniProt P55061", "melting temperature shift": 0.0805}]}, {"compound": "CCc1cnccc1C(=O)Nc1cc2c(cc1F)NC(=O)CC2", "assay": "melting temperature shift (DMSO Tm minus MBE1-treated Tm) in cellular thermal proteome profiling; higher = less thermal stabilization by MBE1 (negative = stabilized by MBE1)", "conditions": "A375; MBE1 concentration: 1 uM", "units": {"melting temperature shift": "°C"}, "values": [{"target": "SEC13 (UniProt P55735)", "melting temperature shift": 0.147}, {"target": "UniProt P63092", "melting temperature shift": 0.0201}, {"target": "SNX16 (UniProt P57768)", "melting temperature shift": 3.04}, {"target": "NUTF2 (UniProt P61970)", "melting temperature shift": 0.353}, {"target": "HNRNPA3 (UniProt P51991)", "melting temperature shift": -0.543}, {"target": "RAB10 (UniProt P61026)", "melting temperature shift": 0.543}, {"target": "EPHB3 (UniProt P54753)", "melting temperature shift": 0.983}, {"target": "UniProt P52815", "melting temperature shift": -3.82}, {"target": "RPS15 (UniProt P62841)", "melting temperature shift": 0.996}, {"target": "RAP2B (UniProt P61225)", "melting temperature shift": -1.58}, {"target": "YBX1 (UniProt P67809)", "melting temperature shift": -0.199}, {"target": "UniProt P54922", "melting temperature shift": 0.456}, {"target": "GABARAPL2 (UniProt P60520)", "melting temperature shift": 0.664}, {"target": "AK2 (UniProt P54819)", "melting temperature shift": -2.58}, {"target": "UniProt P52739", "melting temperature shift": -0.942}, {"target": "UBE2L3 (UniProt P68036)", "melting temperature shift": 0.562}, {"target": "GEMIN4 (UniProt P57678)", "melting temperature shift": -0.192}, {"target": "PRKAG1 (UniProt P54619)", "melting temperature shift": 0.311}, {"target": "RPL27 (UniProt P61353)", "melting temperature shift": 0.0872}, {"target": "RPL23 (UniProt P62829)", "melting temperature shift": 0.782}, {"target": "PPP1CA (UniProt P62136)", "melting temperature shift": -0.812}, {"target": "UniProt P61326", "melting temperature shift": -1.66}, {"target": "UniProt P54289", "melting temperature shift": 0.288}, {"target": "NCS1 (UniProt P62166)", "melting temperature shift": -0.557}, {"target": "RPL31 (UniProt P62899)", "melting temperature shift": -2.57}, {"target": "ARF6 (UniProt P62330)", "melting temperature shift": 0.0537}, {"target": "UniProt P53677", "melting temperature shift": -0.415}, {"target": "RPS24 (UniProt P62847)", "melting temperature shift": -0.858}, {"target": "RAB8A (UniProt P61006)", "melting temperature shift": 0.623}, {"target": "UniProt P52756", "melting temperature shift": -0.557}, {"target": "RPS21 (UniProt P63220)", "melting temperature shift": 1.24}, {"target": "AP1S1 (UniProt P61966)", "melting temperature shift": 0.116}, {"target": "COPB1 (UniProt P53618)", "melting temperature shift": 0.275}, {"target": "ACLY (UniProt P53396)", "melting temperature shift": 0.202}, {"target": "RPS29 (UniProt P62273)", "melting temperature shift": -5.75}, {"target": "CORO7 (UniProt P57737)", "melting temperature shift": -0.218}, {"target": "PEX3 (UniProt P56589)", "melting temperature shift": -0.281}, {"target": "UniProt P55061", "melting temperature shift": -0.329}]}]}
